# About 6,100 (1.1%) of roughly 580,000 compounds were called active. This list was built around the results that the source calls inconclusive (neither active nor inactive); the mix of calls is not that of the screen. Calls come from the whole dose curve; as a rule, active = well fitted inhibition curve with a large enough effect; inconclusive = small, poorly fitted or top-dose-only effect, or another doubt; inactive = no such curve, though single readings can be large or run the other way. Potencies of inconclusive entries are doubtful fits and often do not repeat.
# The chains behind the UniProt entries cited, without tags or fusion partners.
# UniProt P18054, whole entry, looked up: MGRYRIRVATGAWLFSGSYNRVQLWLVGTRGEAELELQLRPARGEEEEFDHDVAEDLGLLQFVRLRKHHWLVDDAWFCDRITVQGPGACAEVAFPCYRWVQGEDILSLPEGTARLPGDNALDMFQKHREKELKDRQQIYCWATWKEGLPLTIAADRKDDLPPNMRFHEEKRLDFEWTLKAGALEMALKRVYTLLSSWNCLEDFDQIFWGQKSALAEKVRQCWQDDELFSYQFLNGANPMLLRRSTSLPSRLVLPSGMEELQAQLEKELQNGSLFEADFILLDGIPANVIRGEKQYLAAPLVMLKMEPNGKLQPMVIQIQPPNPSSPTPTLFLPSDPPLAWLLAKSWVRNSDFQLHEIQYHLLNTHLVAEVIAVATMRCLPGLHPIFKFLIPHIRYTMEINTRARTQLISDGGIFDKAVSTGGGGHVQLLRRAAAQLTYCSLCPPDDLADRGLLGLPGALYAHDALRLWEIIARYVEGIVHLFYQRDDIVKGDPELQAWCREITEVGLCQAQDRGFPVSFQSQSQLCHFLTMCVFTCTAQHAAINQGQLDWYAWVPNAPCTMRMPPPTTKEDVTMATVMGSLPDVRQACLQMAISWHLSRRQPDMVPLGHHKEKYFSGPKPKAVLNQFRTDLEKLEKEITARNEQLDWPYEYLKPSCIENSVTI
# Target: Polyunsaturated fatty acid lipoxygenase ALOX12 (Homo sapiens) (UniProt P18054)
# Experiment: Primary qHTS assay for inhibitors of human arachidonate 12S-lipoxygenase (ALOX12): Round 2
# Conditions: purified 12hLO, xylenol orange hydroperoxide absorbance; series mostly up to 108 µM
# Summary of the method: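 Purified human 12hLO at 150 nM in 25 mM Hepes, 0.01% Triton X-100, pH 7.0, preincubated 15 min at room temperature with compound. Reaction started with 40 uM arachidonic acid, 30 min at room temperature. Hydroperoxide measured by Fe-xylenol orange, 573/405 nm absorbance ratio.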
# Potency is the fitted concentration of half-maximal effect.
row,SMILES,Potency
1,c1ccc(Nc2cc3c(cn2)NCCN(Cc2cccs2)C3)cc1,"inconclusive: 22.4 µM [inhibitor, full curve, poor fit]"
2,COc1cccc(N2CCN(C3CC(=O)N(c4ccc(F)c(Cl)c4)C3=O)CC2)c1 (stereo not given),"inconclusive: 35.5 µM [inhibitor, single point]"
3,Cc1cccc(-c2noc(CSc3n[nH]c(=O)c4cc(-c5ccco5)nn34)n2)c1,"inconclusive: 141 µM [inhibitor, partial curve, poor fit]"
4,CCOC(=O)c1[nH]c(COC(=O)CCOc2ccccc2OC)c(C(=O)OCC)c1C,inactive
5,Cc1cc(C(=O)N/N=C/c2ccc3c(c2)OCO3)c(C)n1-c1ccc(F)cc1,inactive
6,Cc1ccc(-n2c(=O)c3ccc(C(=O)NCc4ccco4)cc3n(Cc3ccccc3C#N)c2=O)cc1,"inconclusive: 126 µM [inhibitor, partial curve, poor fit]"
7,Nc1cc(=O)nc(SCc2ccccc2)n1Cc1ccco1,"inconclusive: 35.5 µM [inhibitor, partial curve, poor fit]"
8,CC(C)C(=O)Nc1ccc(C(=O)c2ccccc2)cc1,inactive
9,COc1ccc(C2/C=C\CN(C(=O)C3CC3)CC(=O)N2Cc2ccc(F)cc2)cc1 (stereo not given),"inconclusive: 1.78 µM [inhibitor, full curve, poor fit]"
10,O=C(O)C1CC(=O)N(c2ccc3c(c2)OCCO3)C1 (stereo not given),"inconclusive: 50.1 µM [inhibitor, partial curve, poor fit]"
11,CCNC(=O)C(=O)NCc1ccco1,inactive
12,CC(C)(C)n1nnnc1C(c1cccc(C(F)(F)F)c1)N1CCOCC1 (stereo not given),inactive
13,Cc1ccc(NC(=O)c2cccc(CS(C)=O)c2)c(C)c1 (stereo not given),inactive
14,CN(C(=O)C1=NO[C@@H]2CN(CCc3ccccc3)C[C@H]12)c1ccccc1,"inconclusive: 44.7 µM [inhibitor, partial curve]"
15,COc1ccc(OC)c(CNS(=O)(=O)c2cc(-c3cc(C)no3)ccc2OC)c1,inactive
16,CCN(CC)CCCOc1ccc(Cl)c(Cl)c1,"inconclusive: 1.12 µM [inhibitor, full curve]"
17,Cc1ccc(S(=O)(=O)NC[C@H]2OC[C@@H](NCC3CC3)[C@@H]2O)cc1,"inconclusive: 79.4 µM [inhibitor, partial curve, poor fit]"
18,c1ccc(C2=Nn3c(nnc3-c3ccccn3)SC2)cc1,"inconclusive: 22.4 µM [inhibitor, partial curve, poor fit]"
19,O=C(Nc1cccc2ncccc12)C1CCCCC1,inactive
20,CSc1ccc(C2c3c(-c4ccccc4O)n[nH]c3C(=O)N2CCO)cc1 (stereo not given),"inconclusive: 50.1 µM [inhibitor, partial curve, poor fit]"
21,CCCC(c1nnnn1CC1CCCO1)N1CCN(c2cc(Cl)ccc2C)CC1 (stereo not given),"inconclusive: 35.5 µM [inhibitor, single point]"
22,O=C(Nc1cccc(C(F)(F)F)c1)N[C@H]1[C@H](O)[C@@H](Oc2ccccc2)[C@@H]2OC[C@H]1O2,"inconclusive: 56.2 µM [inhibitor, partial curve, poor fit]"
23,Cc1ccc(N(Cc2cccs2)C(=O)c2ccccc2Cl)cc1,inactive

# A stretch from further up, for reference:
row,SMILES,Potency
9,COc1ccc(C2/C=C\CN(C(=O)C3CC3)CC(=O)N2Cc2ccc(F)cc2)cc1 (stereo not given),"inconclusive: 1.78 µM [inhibitor, full curve, poor fit]"
10,O=C(O)C1CC(=O)N(c2ccc3c(c2)OCCO3)C1 (stereo not given),"inconclusive: 50.1 µM [inhibitor, partial curve, poor fit]"
11,CCNC(=O)C(=O)NCc1ccco1,inactive
12,CC(C)(C)n1nnnc1C(c1cccc(C(F)(F)F)c1)N1CCOCC1 (stereo not given),inactive

# The results go on.

row,SMILES,Potency
1,CSc1nc(Sc2ccccc2Cl)c2ccccc2n1,inactive
2,O=C1C=C(c2ccc(Cl)c(C(F)(F)F)c2)C[C@@H](c2ccc(F)cc2)C1,"inconclusive: 50.1 µM [inhibitor, partial curve, poor fit]"
3,Cc1ccc(S(=O)(=O)N(C)c2ccccc2C(=O)N2CCCC2)cc1,"inconclusive: 35.5 µM [inhibitor, partial curve, poor fit]"
4,COc1ccc(CCOC(=O)CNC(=O)c2ccc(Cl)cc2Cl)cc1,"inconclusive: 44.7 µM [inhibitor, partial curve, poor fit]"
5,CCOP(=O)(OCC)/C(C#N)=C(\O)c1ccc(OC)cc1,"inconclusive: 39.8 µM [inhibitor, single point]"
6,Cc1[nH]n(-c2ccc([N+](=O)[O-])cc2)c(=O)c1C=NCCN1CCN(C(=O)c2ccc(F)cc2)CC1,inactive
7,CCOC(=O)c1ccc(NC(=O)c2cc3sccc3n2Cc2ccc(Cl)cc2)cc1,inactive
8,Cc1ccc2[nH]c(C)c(CCNC(=S)NC(C)(C)C)c2c1,"inconclusive: 44.7 µM [inhibitor, partial curve, poor fit]"
9,CC(=O)Nc1ccc(N(CC(O)Cn2c3ccccc3c3ccccc32)S(=O)(=O)c2ccc(C)cc2)cc1 (stereo not given),"inconclusive: 70.8 µM [inhibitor, partial curve, poor fit]"
10,c1ccc2c(c1)ncn2CCN1CCCCC1,"inconclusive: 3.98 µM [inhibitor, full curve, poor fit]"
11,CCC(=O)Oc1cccc2cc(-c3nc(-c4ccc(Cl)cc4)no3)c(=O)oc12,"inconclusive: 0.251 µM [inhibitor, full curve, poor fit]"
12,COCCN1CN=C(Nc2nc3ccccc3s2)NC1,"inconclusive: 44.7 µM [inhibitor, partial curve, poor fit]"
13,COCC(=O)N1CCC(Oc2ccc(C(=O)N(C)C)cn2)CC1,inactive
14,COc1ccc(C2C(C(=O)OCC3CCCO3)=C(C)NC3=C2C(=O)CC(c2ccco2)C3)cc1O (stereo not given),active: 8.91 µM
15,O=c1[nH]c(Nc2ccccc2)nc2nccc(-c3ccco3)c12,active: 35.5 µM
16,S=C(N/N=C/c1ccccc1Cl)Nc1cccc(Cl)c1Cl,inactive
17,CCCOC(=O)C1=C(C)NC2=C(C(=O)CCC2)C1c1cccc(O)c1 (stereo not given),inactive
18,Clc1cccc(N/N=C(\Cc2nc3ccccc3[nH]2)c2ccccc2)c1,active: 12.6 µM
19,COc1ccc(C(=O)Nc2cccc(S(=O)(=O)NC3=NCCCCC3)c2)cc1,inactive
20,CCN(CC(=O)Nc1c(F)cccc1F)C(=O)c1ccc(N2CCCC2)c([N+](=O)[O-])c1,inactive
21,CC(=O)N1CCc2cc([N+](=O)[O-])ccc21,inactive
22,C=CCN1CCN(C(=O)CCc2ccccc2)CC1,"inconclusive: 28.2 µM [inhibitor, partial curve, poor fit]"
